Assay results taken from article PMC9541495, “Understanding the interaction of 14‐3‐3 proteins with hDMX and hDM2: a structural and biophysical study” (The Febs Journal, 2022).
These are yes or no findings as the source states them, for the method shown. Some binding calls cover weakened binding; strength is not graded here.

T1: 14‐3‐3σ∆C (human) (UniProt P31947)
T1 sequence: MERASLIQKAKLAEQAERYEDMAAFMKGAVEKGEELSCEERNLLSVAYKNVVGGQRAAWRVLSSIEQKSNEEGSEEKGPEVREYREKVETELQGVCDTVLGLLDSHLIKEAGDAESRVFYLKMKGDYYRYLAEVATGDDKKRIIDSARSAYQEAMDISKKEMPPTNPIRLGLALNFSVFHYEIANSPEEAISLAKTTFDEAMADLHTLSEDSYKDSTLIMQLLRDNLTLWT

B1: 14‐3‐3σ∆C (domain or fragment, UniProt P31947 1-231)
chain: T1 sequence

molecular target: T1, 14‐3‐3σ∆C (human); experiment: crystal structure; 14-3-3σ∆C (12-14 mg/mL) incubated overnight with peptide in 1:2 molar ratio; crystals at 4 °C; molecular replacement with 4DAT; both purified

binding, binds:
DCRRTISAPVVRPK (phosphoserine at 367 (seventh residue); N-terminal acetyl; C-terminal amide) [Ac‐hDMX_(361‐374) ^pSer367]
B1
SKLTHSLSTSDITAIPEKENEGNDVPDCRRTISAPVVRP (phosphoserine at 342 and at 367; N-terminal acetyl; C-terminal amide) [Ac‐hDMX_(335‐373) ^pSer342/pSer367]
QRKRHKSDSISLS (phosphoserine at 186 (seventh residue); N-terminal acetyl; C-terminal amide) [Ac‐hDM2_(180‐192) ^pSer186]
